Out of some 3,000 compounds screened, about 45 (2%) showed an effect of 50% or more. The list shows a part of the results.
Each compound was assayed on MOLM1 and UCSD/AML1 (averaged) (assay: cell viability relative to DMSO control (POC); higher = less growth inhibition). Conditions: 1 µM; 72 h.
Procedure: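 Primary viability screen in the 3q26 EVI1-high AML cell lines MOLM1 and UCSD/AML1, compounds at 1 uM for 72 h. ATP CellTiter-Glo read-out given as percent viable over DMSO control (POC), averaged over duplicates. This mapping covers the TimTec NDL-3000 natural derivative library, whose compounds are identified by TimTec catalogue codes (ST...).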

| Compound | cell viability |
| --- | --- |
| COC(=O)C1=CN(Cc2ccc(Cl)cc2)C=C(C(=O)OC)C1c1cc(OC)c(OC)c(OC)c1 | 91% |
| Cc1ccc(-c2nc(CSc3nc4c(=O)[nH]cnc4n3-c3ccc(C)cc3)c(C)o2)cc1 | 94.7% |
| Cc1cccc(Cn2c(SCCO)nc3c2c(=O)[nH]c(=O)n3C)c1 | 98.6% |
| O=C(NCCNC(=O)c1ccc(CN2CCc3ccccc3C2)cc1)c1ccc(CN2CCc3ccccc3C2)cc1 | 97.7% |
| COc1ccc(C(OCC2OC(n3cnc4c(N)ncnc43)CC2O)(c2ccccc2)c2ccc(OC)cc2)cc1 (centres undefined) | 69.6% |
| O=C(Cn1c(=O)cc(C(=O)N2CCCC2)c2ccccc21)Nc1ccc(F)cc1 | 106% |
| COc1cc(C(=O)CCNc2cccc(F)c2)cc(OC)c1OC | 101% |
| CCCNC(=O)c1cc(=O)n(CC(=O)Nc2cc(Cl)ccc2C)c2ccccc12 | 85.2% |
| O=C(NC(Cc1c[nH]c2ccccc12)C(=O)Oc1ccc2c(=O)c(Oc3ccc(Cl)cc3)c(C(F)(F)F)oc2c1)OCc1ccccc1 (centres undefined) | 79.8% |
| Cc1ccc(-n2c(SCC(=O)Nc3cc(Cl)ccc3C)nc3c(=O)[nH]cnc32)cc1 | 102% |
| COc1cc(CNC(=O)c2ccc(C(=O)c3ccccc3)cc2)cc(OC)c1OC | 99.1% |
| CCOC(=O)C(=O)Nc1ccccc1C(=O)OCC | 94.1% |
| COC(=O)C1=C(C)NC2=C(C(=O)CC(c3ccc(Cl)cc3)C2)C1c1cc(OC)c(OC)c(OC)c1 (centres undefined) | 99.1% |
| Clc1ccc(-c2nc(Nc3ccc4c(c3)OCCO4)c3ccccc3n2)cc1 | 91.5% |
| COC(=O)/C=C/c1cc(S(=O)(=O)NC2CC2)ccc1OC | 116% |
| CCN(CC)c1ccc2cc(-c3ccccc3)c(=O)oc2c1 | 96.9% |
| COC(=O)c1ccc(NC(=S)N/N=C/c2cc(OC)c(OC)c(OC)c2)cc1 | 95.4% |
| COc1cc(C(=O)Nc2ccccc2C#N)cc(OC)c1OC | 109% |
| COc1ccc(C(=O)Nc2cc(Cl)cc(Cl)c2)cc1OC | 94.7% |
| COc1cc(-c2nnc(CSc3nc4ccccc4c(=O)n3Cc3ccccc3)o2)cc(OC)c1OC | 97.7% |
| CC1(C)CC(=O)C2=C(C1)Nc1ccccc1NC2c1cccc(OCc2cccc(F)c2)c1 (centres undefined) | 105% |
| Cc1ccc(-n2c(SCC(=O)Nc3ccccc3C(F)(F)F)nc3c(=O)[nH]cnc32)cc1 | 108% |
| CCCNC(=O)c1cc(=O)n(CC(=O)Nc2cccc(F)c2)c2ccccc12 | 82.5% |
| Cc1ccc(-c2nc(CSc3nc4c(=O)[nH]cnc4n3C)c(C)o2)cc1 | 94.6% |
| COc1cc(CNc2ccc([N+](=O)[O-])cn2)cc(OC)c1OC | 108% |

As entered above.
COC(=O)c1ccc(NC(=S)N/N=C/c2cc(OC)c(OC)c(OC)c2)cc1 – cell viability: 95.4%
CC1(C)CC(=O)C2=C(C1)Nc1ccccc1NC2c1cccc(OCc2cccc(F)c2)c1 (centres undefined) – cell viability: 105%
COC(=O)C1=CN(Cc2ccc(Cl)cc2)C=C(C(=O)OC)C1c1cc(OC)c(OC)c(OC)c1 – cell viability: 91%
COc1cc(C(=O)Nc2ccccc2C#N)cc(OC)c1OC – cell viability: 109%

3 of these compounds in a different format.
Compound	cell viability
COc1ccc(C(OCC2OC(n3cnc4c(N)ncnc43)CC2O)(c2ccccc2)c2ccc(OC)cc2)cc1 (centres undefined)	69.6%
O=C(Cn1c(=O)cc(C(=O)N2CCCC2)c2ccccc21)Nc1ccc(F)cc1	106%
CCCNC(=O)c1cc(=O)n(CC(=O)Nc2cc(Cl)ccc2C)c2ccccc12	85.2%

Next results

| Compound | cell viability |
| --- | --- |
| CC[N+]12CCCC34CCC5(C(C(=O)OC)C3)N(C(C)=O)c3ccccc3C5(CC1)C42 (centres undefined) | 100% |
| COCCNC(=O)Cc1c(C)n(C(=O)c2ccc(Cl)cc2)c2ccc(OC)cc12 | 84.8% |
| COc1cc(C2Nc3ccccc3NC3=C2C(=O)CC(C)(C)C3)ccc1OCc1cccc2ccccc12 (centres undefined) | 109% |
| Cc1ccc2c(N)c(C(=O)N3CCC[C@H]3C(=O)O)sc2n1 | 95.3% |
| COc1cc(C(=O)N2c3ccccc3CC2C)cc(OC)c1OC (centres undefined) | 91.9% |
| CCOC(=O)C1=C(N)Oc2c(oc(CO)cc2=O)C1c1cc(Cl)ccc1Cl (centres undefined) | 95.1% |
| CCN(CC)Cc1nnn(-c2nonc2N)c1C(=O)N/N=C/c1cc(OC)c(OC)c(OC)c1 | 102% |
| CC1(C)CC(=O)C2=C(C1)Nc1ccccc1NC2c1ccc(OCc2ccc(Br)cc2)cc1 (centres undefined) | 108% |
| COc1c2cc(C(C)(C)C)cc1Cc1cc(C(C)(C)C)cc(c1O)Cc1cc(C(C)(C)C)cc(c1OC)Cc1cc(C(C)(C)C)cc(c1O)C2 | 103% |
| O=C(Cn1c(=O)cc(C(=O)N2CCCCC2)c2ccccc21)Nc1ccc2c(c1)OCO2 | 107% |
| Cc1cc(Oc2coc3cc(OC(=O)c4ccco4)ccc3c2=O)cc(C)c1Cl | 101% |
| CC(=O)NC(CCCN=C(N)N)C(=O)O (centres undefined) | 92.7% |
| COc1cc(OC)cc(C(=O)OCc2ccc(F)cc2)c1 | 100% |
| Cc1cc(C(=O)O)nc2ccccc12 | 97.7% |
| O=C(/C=C/c1cccc(Cl)c1)c1ccc(-c2ccccc2)cc1 | 96.4% |
| COc1ccc(C)cc1NC(=O)Cn1c(=O)cc(C(=O)N2CCc3ccccc3C2)c2ccccc21 | 99% |
| COc1ccc(C(=O)NCCc2c(C)[nH]c3c(C)cccc23)cc1OC | 98.6% |
| COc1ccc(C(=O)CCNc2ccc(F)cc2)cc1OC | 96.3% |
| O=C(C1CC1)N1CCN(c2nc(NC3CCCC3)c3ccccc3n2)CC1 | 86.7% |
| O=C(CCc1cccc(F)c1)NC(CO)C(O)c1ccccc1 (centres undefined) | 110% |
| Cc1ccc2nc(NC(=O)CN3CCc4ccccc4C3)sc2c1 | 99% |
| CCOc1cc(C2C(C(=O)OC)=C(C)NC3=C2C(=O)CC(c2ccccc2)C3)cc(Br)c1O (centres undefined) | 105% |
| CCOc1ccc(NC(=O)C2c3ccccc3Oc3ccccc32)cc1 | 57.8% |
| O=C(c1ccccc1Cl)N1CCc2c([nH]c3ccccc23)C1c1ccc([N+](=O)[O-])cc1 (centres undefined) | 103% |
| O=c1[nH]c2ccc(Cl)cc2c(-c2ccccc2)c1Sc1nc2ccccc2[nH]1 | 101% |

| Compound | cell viability |
| --- | --- |
| COc1ccc2c(=O)c(-c3ccc(OC)c(OC)c3)coc2c1 | 97% |
| O=C(/C=C/c1ccccc1)ON1C(=O)CCC1=O | 108% |
| OCC1OC(O)C(O)C(O)C1O (centres undefined) | 99.2% |
| COc1cc(OC)cc([C@@H]2[C@@H](C(C)=O)N3c4ccccc4C=C[C@@H]3C2(C#N)C#N)c1 | 92.8% |
| COC(=O)C1Cc2c([nH]c3ccccc23)C(c2ccc(F)cc2)N1 (centres undefined) | 100% |
| COc1cc(OC)cc(C2C(C#N)=C(N)Oc3n[nH]c(C)c32)c1 (centres undefined) | 92.9% |
| COc1cc(C(=O)Oc2ccc(Br)c3ccccc23)cc(OC)c1OC | 99.9% |
| COc1cccc(C2C(C(C)=O)=C(O)C(=O)N2CCc2cnc[nH]2)c1 (centres undefined) | 105% |
| Cc1ccc2[nH]c(C)c(CCNC(=O)c3cccc([N+](=O)[O-])c3)c2c1 | 90.6% |
| O=C(O)CNC(=O)c1ccc(Cl)cc1 | 108% |
| Cc1[nH]c2ccc(OC(F)(F)F)cc2c1CCNC(=O)c1cccnc1Cl | 91.6% |
| O=C(O)c1ccccc1-c1c2cc(I)c(=O)c(I)c-2oc2c(I)c(O)c(I)cc12 | 72.1% |
| CCOc1ccc(C(=O)Nc2c(C)nc3nc[nH]n3c2=O)cc1OCC | 86.1% |
| COc1ccc(C(=O)NCc2ccc(C)cc2)cc1OC | 93.3% |
| CCOC(=O)CNC(=O)c1cccc(C)c1 | 100% |
| CCCCOC(=O)NC1OC(COC(C)=O)C(OC(C)=O)C(OC(C)=O)C1OC(C)=O (centres undefined) | 98.1% |
| O=c1c(-c2ccc(O)cc2)coc2c(C3OC(CO)C(O)C(O)C3O)c(O)ccc12 (centres undefined) | 96.8% |
| COc1ccc(/C=C2\C(=O)Nc3cc(OC)c(OC)cc32)cc1O | 71.7% |
| C=CCNC(=O)Cc1c(C)n(C(=O)c2ccc(Cl)cc2)c2ccc(OC)cc12 | 101% |
| COc1ccc(OC)c(C2Nc3ccccc3NC3=C2C(=O)CC(c2ccc(Cl)cc2)C3)c1 (centres undefined) | 104% |
| COc1ccc(C(=O)Nc2nc3ccccc3s2)cc1OC | 89.8% |
| Cc1ccc(-n2c(SCC(=O)Nc3ccccc3C)nc3c(=O)[nH]cnc32)cc1 | 102% |
| Cc1c(Cl)cccc1NC(=O)CSc1nc2ccccc2c(=O)[nH]1 | 99.2% |
| CC(=O)NCC(=O)N(CCc1c[nH]c2ccccc12)C1(C(=O)Nc2c(C)cccc2C)CCCCC1 | 103% |
| COc1cc(N(C(C)=O)C2OC(COC(C)=O)C(OC(C)=O)C(OC(C)=O)C2OC(C)=O)c(OC)c2c(C)cc(C)nc12 (centres undefined) | 98.5% |

| Compound | cell viability |
| --- | --- |
| O=C(O)/C=C/c1ccc([N+](=O)[O-])cc1 | 109% |
| Cn1c(SCC(=O)Nc2ccc(Br)cc2F)nc2c(=O)[nH]cnc21 | 109% |
| COc1cc(C2=NOC(=O)/C2=C\c2cccc([N+](=O)[O-])c2)cc(OC)c1OC | 98.7% |
| CCOc1ccc(O)c(C(=O)CC2OC(=O)c3c2ccc(OC)c3OC)c1 (centres undefined) | 93.8% |
| Cc1ccc(S(=O)(=O)NCC2c3ccccc3CCN2S(=O)(=O)c2ccc(C)cc2)cc1 (centres undefined) | 104% |
| Cc1ccc(NC(=O)Cc2c(Sc3ccccc3)c3ccccc3n2C)cc1 | 87.6% |
| Cc1ccc2[nH]cc(CCNC(=O)c3cc4nc(C5CC5)cc(C(F)(F)F)n4n3)c2c1 | 97.4% |
| COc1ccc(C(=O)Nc2ccc(OCCCOc3ccc(NC(=O)c4ccc(OC)c(OC)c4)cc3OC)c(OC)c2)cc1OC | 110% |
| O=C(O)/C=C/c1ccc(Cl)cc1 | 88.1% |
| CCCCC(=O)Nc1ccc(-c2cc3ccccc3oc2=O)c(C)c1 | 106% |
| CCOC(=O)CCc1n[nH]c(=O)[nH]c1=O | 88.1% |
| O=C(Nc1cc2nn(-c3ccccc3)nc2cc1Cl)c1ccc2c(c1)OCO2 | 102% |
| COc1ccc(OC)c(-c2oc3ccccc3c(=O)c2O)c1 | 93.4% |
| CC(=O)C1=C(O)C(=O)N(CCc2c(C)[nH]c3ccccc23)C1c1cccc([N+](=O)[O-])c1 (centres undefined) | 101% |
| CCCOC(=O)C1=C(C)NC2=C(C(=O)CC(C)(C)C2)C1c1ccc(OC)c(Br)c1 (centres undefined) | 102% |
| COc1ccc(CCN(C)CCN2C(=O)c3ccccc3C2=O)cc1OC | 103% |
| Cn1c(=O)c2c(ncn2CC(=O)Nc2nc3ccccc3s2)n(C)c1=O | 110% |
| Cc1cc([N+](=O)[O-])ccc1NC(=O)c1cc2ccccc2oc1=O | 102% |
| COc1ccc(-c2nc(CN3CCN(Cc4cc(=O)oc5cc(C)ccc45)CC3)c(C)o2)cc1OC | 95% |
| O=C1C2OCC(O2)[C@H]2C(C(=O)C34CC5CC(CC(C5)C3)C4)N3c4ccccc4C=C[C@@H]3[C@@H]12 (some centres undefined) | 94.8% |
| O=C(Cc1ccc(Cl)cc1Cl)c1ccc(O)cc1O | 96% |
| O=C(Cn1c(=O)cc(C(=O)N2CCCCC2)c2ccccc21)Nc1cc(F)ccc1F | 99.3% |
| O=C(O)C1CCCN1S(=O)(=O)c1ccccc1 (centres undefined) | 93.3% |
| Cc1ccccc1NC(=O)C(Cc1c[nH]c2ccccc12)NC(=O)OC(C)(C)C (centres undefined) | 92% |

— the supplement of paper PMC11150407
